Patent US20220218659A1, “PI3K/LYN-ACLY Signaling Inhibition” (Institute For Cancer Research d/b/a The Research Institute …, priority 2019, published 2022)
Results are given in words; binding and its absence hold for the method and conditions named. In cells and extracts the contact can be indirect. Some binding calls cover weakened binding; strength is not graded here.

Protein sequences, listed by entry. Tags and fused reporters are not part of them. Residues count along the entry.
UniProt P53396: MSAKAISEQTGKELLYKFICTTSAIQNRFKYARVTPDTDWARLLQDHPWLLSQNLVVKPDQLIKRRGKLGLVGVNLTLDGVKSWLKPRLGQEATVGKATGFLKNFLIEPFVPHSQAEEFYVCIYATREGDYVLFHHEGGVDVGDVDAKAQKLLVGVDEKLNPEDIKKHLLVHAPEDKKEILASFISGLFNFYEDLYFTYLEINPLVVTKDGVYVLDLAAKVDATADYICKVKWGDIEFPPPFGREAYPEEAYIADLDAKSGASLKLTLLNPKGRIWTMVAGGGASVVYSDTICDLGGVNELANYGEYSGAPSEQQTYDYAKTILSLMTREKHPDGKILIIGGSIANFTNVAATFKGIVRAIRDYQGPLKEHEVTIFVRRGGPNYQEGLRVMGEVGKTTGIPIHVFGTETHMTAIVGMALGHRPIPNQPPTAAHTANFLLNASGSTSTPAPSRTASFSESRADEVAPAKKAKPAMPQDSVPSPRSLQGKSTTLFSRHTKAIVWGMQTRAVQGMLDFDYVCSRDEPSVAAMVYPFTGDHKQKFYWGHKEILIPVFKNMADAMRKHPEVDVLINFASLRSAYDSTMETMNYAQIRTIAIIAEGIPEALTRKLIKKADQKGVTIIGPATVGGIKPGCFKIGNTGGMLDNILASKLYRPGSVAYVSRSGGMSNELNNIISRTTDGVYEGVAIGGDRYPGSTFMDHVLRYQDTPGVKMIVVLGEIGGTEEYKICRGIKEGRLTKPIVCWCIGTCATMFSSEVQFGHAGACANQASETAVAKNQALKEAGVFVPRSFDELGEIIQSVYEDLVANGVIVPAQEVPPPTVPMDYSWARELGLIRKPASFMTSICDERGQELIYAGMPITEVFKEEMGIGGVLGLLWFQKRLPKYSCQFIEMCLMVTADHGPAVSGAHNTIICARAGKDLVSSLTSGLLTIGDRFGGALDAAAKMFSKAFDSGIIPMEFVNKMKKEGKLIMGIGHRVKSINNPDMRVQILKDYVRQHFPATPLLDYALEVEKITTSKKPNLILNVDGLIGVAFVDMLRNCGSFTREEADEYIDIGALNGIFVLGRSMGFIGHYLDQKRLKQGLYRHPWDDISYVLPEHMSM
UniProt P07948, residues 2-512: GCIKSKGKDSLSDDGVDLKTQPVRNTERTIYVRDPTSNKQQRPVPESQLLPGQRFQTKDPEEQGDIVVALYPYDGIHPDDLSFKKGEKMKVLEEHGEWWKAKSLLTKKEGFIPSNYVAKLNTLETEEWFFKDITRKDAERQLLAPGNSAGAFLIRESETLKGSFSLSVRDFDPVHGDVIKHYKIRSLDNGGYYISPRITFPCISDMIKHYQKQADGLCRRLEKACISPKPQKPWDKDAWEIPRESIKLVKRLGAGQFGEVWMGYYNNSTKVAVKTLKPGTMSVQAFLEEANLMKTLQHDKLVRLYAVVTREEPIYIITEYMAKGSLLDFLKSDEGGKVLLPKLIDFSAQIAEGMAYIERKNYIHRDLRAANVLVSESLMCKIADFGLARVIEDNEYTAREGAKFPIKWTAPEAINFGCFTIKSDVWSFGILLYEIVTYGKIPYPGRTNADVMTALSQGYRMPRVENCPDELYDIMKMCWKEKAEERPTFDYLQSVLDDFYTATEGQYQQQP

What was measured:
[1] = biological target: ACLY (ATP citrate lyase), endogenous, in HL-60 AML cells (UniProt P53396); assay: summary sentence in Example 9, referring to the earlier co-immunoprecipitation and kinase assays
[2] = biological target: ACLY (ATP citrate lyase), endogenous, in HL-60 AML cells (UniProt P53396); assay: heading of the FIG. 3 legend (co-immunoprecipitation and in vitro kinase assays)
[3] = biological target: ACLY (ATP citrate lyase), endogenous, in HL-60 AML cells (UniProt P53396); assay: co-immunoprecipitation with anti-LYN antibody from HL-60 lysate, western blot for ACLY

binding [1]: binds | binding [2]: binds | binding [3]: binds
Substance: Lyn tyrosine kinase, endogenous, immunoprecipitated from HL-60 AML cells (from UniProt P07948 2-512) (enzyme)
